One assay deals with Fg-Ter94 (Drosophila) (UniProt Q7KN62). Put plainly: co-IP; HEK-293T cells co-transfected with two tagged constructs (PEI), collected 48 h after transfection; IP with anti-Fg or anti-Myc, immunoblot.
Assay [1] deals with Fg-Ter94-C (aa661-801) (Drosophila) (UniProt Q7KN62). The description is as above.
Assay [2] addresses Fg-Ter94-M (aa211-660) (Drosophila) (UniProt Q7KN62). The description is as above.
Assay [3] has as its target T1, Fg-Ter94-N (aa1-210) (Drosophila) (UniProt Q7KN62).
T1 sequence: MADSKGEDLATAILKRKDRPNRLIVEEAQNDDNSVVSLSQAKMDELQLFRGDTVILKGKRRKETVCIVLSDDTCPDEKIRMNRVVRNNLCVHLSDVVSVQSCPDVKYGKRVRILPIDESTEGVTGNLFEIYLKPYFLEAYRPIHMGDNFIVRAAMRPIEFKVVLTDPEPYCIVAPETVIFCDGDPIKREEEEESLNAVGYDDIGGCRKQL
The assay is described as above.

The target in a further assay is T2, Fg-Kib (Drosophila) (UniProt Q9VFG8).
T2 sequence: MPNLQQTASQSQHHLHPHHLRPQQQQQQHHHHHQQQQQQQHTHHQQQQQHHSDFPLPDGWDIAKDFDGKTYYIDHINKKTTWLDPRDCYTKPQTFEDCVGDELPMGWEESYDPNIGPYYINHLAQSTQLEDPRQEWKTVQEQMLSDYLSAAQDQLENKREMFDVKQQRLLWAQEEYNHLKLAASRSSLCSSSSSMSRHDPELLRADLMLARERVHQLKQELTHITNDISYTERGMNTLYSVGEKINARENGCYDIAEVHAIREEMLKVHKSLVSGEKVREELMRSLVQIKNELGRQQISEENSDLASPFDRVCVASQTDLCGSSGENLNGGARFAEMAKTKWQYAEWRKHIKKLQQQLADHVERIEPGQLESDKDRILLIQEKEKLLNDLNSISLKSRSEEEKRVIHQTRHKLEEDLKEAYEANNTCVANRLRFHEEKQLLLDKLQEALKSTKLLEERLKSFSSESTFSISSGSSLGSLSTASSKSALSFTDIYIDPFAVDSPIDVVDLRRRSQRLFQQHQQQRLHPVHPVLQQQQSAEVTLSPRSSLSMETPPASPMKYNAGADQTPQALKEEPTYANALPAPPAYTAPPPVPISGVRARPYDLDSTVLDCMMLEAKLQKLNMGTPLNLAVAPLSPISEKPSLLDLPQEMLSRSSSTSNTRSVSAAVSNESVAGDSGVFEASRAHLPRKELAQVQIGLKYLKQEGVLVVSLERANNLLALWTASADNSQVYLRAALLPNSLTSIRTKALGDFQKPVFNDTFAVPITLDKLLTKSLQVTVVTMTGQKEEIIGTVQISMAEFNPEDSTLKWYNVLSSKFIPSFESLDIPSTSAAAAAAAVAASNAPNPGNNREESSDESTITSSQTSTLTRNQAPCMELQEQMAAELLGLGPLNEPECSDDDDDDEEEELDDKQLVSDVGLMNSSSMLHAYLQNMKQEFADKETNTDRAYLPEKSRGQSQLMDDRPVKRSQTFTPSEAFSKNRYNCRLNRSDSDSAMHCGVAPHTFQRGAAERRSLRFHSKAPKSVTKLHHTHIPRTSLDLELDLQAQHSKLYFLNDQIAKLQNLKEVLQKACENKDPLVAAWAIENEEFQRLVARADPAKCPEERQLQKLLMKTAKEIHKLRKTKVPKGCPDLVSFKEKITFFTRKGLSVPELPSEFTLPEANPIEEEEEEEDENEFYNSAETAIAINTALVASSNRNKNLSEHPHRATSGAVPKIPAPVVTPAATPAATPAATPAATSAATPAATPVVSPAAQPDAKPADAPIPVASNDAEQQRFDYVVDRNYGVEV
Put plainly: co-IP; HEK-293T cells co-transfected with two tagged partners, with or without co-expressed HA-Ter94 (Fig. 7a-c) or HA-Ub-K63 (Fig. 7d-e); IP and immunoblot.

We go through one molecule from PMC11074327.

Results are given in words; binding and its absence hold for the method and conditions named. In cells and extracts the contact can be indirect. Some entries that bind do so weakly or less than the wild type. Sequences can lack the tags named with a protein.

B1: Myc-Mer (protein, UniProt Q24564 1-635)
chain: MSPFGSKKNRSLSVRVSTFDSELEFKLEPRASGQDLFDLVCRTIGLRESWYFGLQYVDTRSNVSWLKMEKRVRDQRVELHASNNVYVFSFYAKFFPENVSEELIQEITQHLFFLQVKQSILSMDIYCRPEASVLLASYAVHVQYGPYDYETYKDGMLAGGELLPKGVTDQYQMTPEMWEERIKTWYMDHEPMTRDEVEMEYLKIAQDLDMYGVNYFPITNKNKTKLWLGVTSVGLNIYDERDKLTPKTTFQWNEIRHVSFDDKKFTIRLVDAKVSNFIFYSQDLHINKMILDLCKGNHDLYMRRRKPDTMEIQQMKAQAKEEKQRRQIERKKFIREKKLREKAEHERYELEKSMEHLQNEMRMANDALRRSEETKELYFEKSRVNEEQMQLTECKANHFKTEMDRLRERQMKIEREKHDLEKKIRDADFYVHQLTVENDKREAETEKLRKELICAKMAEREATARLLEFLNSGRKSSTDSLLTASSVSHAANTASSMAAISTPSLITSSSTNDLETAGGAELTTHSSHYLVQGDNSSGISDDFEPKEFILTDNEMEQITNEMERNHLDYLRNSKQVQSQLQTLRSEIAPHKIEENQSNLDILSEAQIKAGENKYSTLKKLKSGSTKARVAFFEEL
B1: the binding entry was “binds” with Fg-Ter94 (Drosophila); “binds” in assay [1]; “no binding” in assay [2]; “binds” in assay [3]; “binds” with Fg-Kib (Drosophila).
